The other results are listed elsewhere or left out. Further columns of the screen follow, without active or inactive calls.
Experiment: modulators of CD8 T cell-vesicle binding, confirmation, cherry-picked primary hits, two concentrations (AID 2810);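 also: lower values mean blocking of vesicle binding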;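 as to percent response (vesicle binding): ratio of mean FL2 vesicle stain of CD8+ cells to that row's control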
Conditions: 2C CD8+ T cell-vesicle binding, flow cytometry; for double positive events: CD8+/vesicle+ events
[1] = at 15.4 µM, stronger effect = lower value

SMILES | double positive events (at 7.7 µM) | double positive events [1] | percent response (vesicle binding) (at 7.7 µM)
COC(=O)C1=C(c2ccc(F)cc2F)C[C@@H]2CC[C@H]1N2C(=O)NCCNC(C)=O | 12.8% | 7.1% | 114%
COCCCn1c(N)c(C(=O)Nc2sc3c(c2C(=O)OC)CCCC3)c2nc3ccccc3nc21 | 4.9% | 36.1% | 217%
CCCCn1c(=O)c(C(=O)NCc2ccncc2)c(O)c2ccccc21 | 28.4% | 16.7% | 252%
CC1CCCN(C(=O)c2ccc(N3CC4CC(C3)c3cccc(=O)n3C4)c([N+](=O)[O-])c2)C1 (stereo not drawn) | 7.8% | 22.2% | 248%
COC(=O)C1=C(c2ccccc2OCc2ccccc2)C[C@@H]2CC[C@H]1N2C(=O)NCc1ccc(Br)cc1 | 32.4% | 29% | 183%
CN1[C@H]2CC[C@@H]1C(C(=O)N1CCOCC1)=C(O)C2 | 13.1% | 23.1% | 189%
CC(C)(O)C(=O)Nc1ccc([N+](=O)[O-])c(C(F)(F)F)c1 | 5.6% | 3.6% | 225%
COC(=O)C1=C(c2c(C)noc2C)C[C@@H]2CC[C@H]1N2C(=O)NCCOc1ccccc1Cl | 18.8% | 16% | 193%
CCC(=NCCOc1ccc(Cl)cc1)c1c(O)n(C)c(=O)n(C)c1=O | 23.2% | 18% | 709%
COc1ccccc1NC(=O)COC(=O)c1cc(C)n(C2CC2)c1C | 8.2% | 15% | 315%
COc1ccc(CC[n+]2cc(/N=C(\C)[O-])on2)cc1OC | 23.3% | 10% | 430%
CNCCCc1ccccc1 | 34.3% | 26.2% | 368%
CCCCCCC[n+]1ccc(-c2cc[n+](CCCCCCC)cc2)cc1 | 7.4% | 26.3% | 223%
CCCNC(=O)N1[C@H]2CC[C@@H]1C(C(=O)OC)=C(c1ccc(F)cc1OCc1ccccc1)C2 | 16.1% | 28.8% | 179%
COC(=O)C1=C(c2c(C)noc2C)C[C@@H]2CC[C@H]1N2C(=O)NCc1ccc(F)cc1 | 12.1% | 21.1% | 112%
CN(C(=O)COC(=O)c1cn(C)c2ccccc12)C1CCCCC1 | 6.9% | 27.9% | 181%
COC(=O)C1=C(c2ccc(F)cc2OCc2ccccc2)C[C@@H]2CC[C@H]1N2C(=O)N1CCC(O)CC1 | 16.2% | 26.6% | 189%
O=S(=O)(c1ccccc1)N1CCCCC1c1cccnc1 (stereo not drawn) | 31.8% | 10.5% | 199%
CCCCn1c(O)c(C(CC)=NCc2ccc3c(c2)OCO3)c(=O)[nH]c1=O | 18.7% | 5.7% | 107%
C[C@]12CCC3C(CC[C@H]4C[C@@H](O)CC[C@]34C)C1CC[C@@H]2OC(=O)[C@H](N)CCCCN (stereo partly drawn) | 24.1% | 30.1% | 177%
Cc1ccc(-c2nc3ccccc3c(=O)n2-c2ccccn2)cc1 | 26.1% | 19.6% | 125%

Some of these compounds in order of number of heavy atoms, smallest number first:
SMILES | double positive events (at 7.7 µM) | double positive events [1] | percent response (vesicle binding) (at 7.7 µM)
CN1[C@H]2CC[C@@H]1C(C(=O)N1CCOCC1)=C(O)C2 | 13.1% | 23.1% | 189%
COc1ccc(CC[n+]2cc(/N=C(\C)[O-])on2)cc1OC | 23.3% | 10% | 430%
COc1ccccc1NC(=O)COC(=O)c1cc(C)n(C2CC2)c1C | 8.2% | 15% | 315%
COC(=O)C1=C(c2ccc(F)cc2F)C[C@@H]2CC[C@H]1N2C(=O)NCCNC(C)=O | 12.8% | 7.1% | 114%
CCCNC(=O)N1[C@H]2CC[C@@H]1C(C(=O)OC)=C(c1ccc(F)cc1OCc1ccccc1)C2 | 16.1% | 28.8% | 179%
